The other results are listed elsewhere or left out.
Experiments:
Experiment in all cases: log2 fold change, soluble protein after heating vs DMSO (PISA); higher = thermal stabilisation; K562 cells, 10 uM, 30 min; active = over 0.2 and 3.5 SD of the protein, either way, in both replicates (recomputed)
[1] = compound: NC(=O)Nc1cc(-c2cccc(F)c2)sc1C(=O)N[C@H]1CCCNC1
Procedure, shortened: (§1)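 Aliquots of K562 cells (2×10^6 cells/mL) treated with 10 μM compound for 30 min were heated for 3 min over 48°C-58°C. After pooling and extraction in PBS with 0.5% NP-40 at 4°C, soluble protein from a 21,000xg, 90 min spin was quantified by TMTpro 16plex LC-MS/MS with channel sums equalised. Thermal stability is expressed against control samples, from duplicates, as a log2 fold change.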

Amino acid sequences for entries named in this document (tags omitted). A change or cut given only in a name is not applied to a line headed by its entry.
UniProt Q99714: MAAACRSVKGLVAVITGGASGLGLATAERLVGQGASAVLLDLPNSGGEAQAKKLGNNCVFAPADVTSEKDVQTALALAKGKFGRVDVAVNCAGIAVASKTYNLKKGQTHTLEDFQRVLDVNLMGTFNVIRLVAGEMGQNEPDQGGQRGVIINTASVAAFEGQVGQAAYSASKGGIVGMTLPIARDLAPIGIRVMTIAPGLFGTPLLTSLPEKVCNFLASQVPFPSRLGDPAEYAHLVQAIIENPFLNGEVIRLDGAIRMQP
UniProt P05114: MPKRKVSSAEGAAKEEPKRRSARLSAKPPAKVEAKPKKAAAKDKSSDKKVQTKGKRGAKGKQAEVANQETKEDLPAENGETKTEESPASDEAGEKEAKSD
UniProt Q7Z6Z7, whole entry, looked up: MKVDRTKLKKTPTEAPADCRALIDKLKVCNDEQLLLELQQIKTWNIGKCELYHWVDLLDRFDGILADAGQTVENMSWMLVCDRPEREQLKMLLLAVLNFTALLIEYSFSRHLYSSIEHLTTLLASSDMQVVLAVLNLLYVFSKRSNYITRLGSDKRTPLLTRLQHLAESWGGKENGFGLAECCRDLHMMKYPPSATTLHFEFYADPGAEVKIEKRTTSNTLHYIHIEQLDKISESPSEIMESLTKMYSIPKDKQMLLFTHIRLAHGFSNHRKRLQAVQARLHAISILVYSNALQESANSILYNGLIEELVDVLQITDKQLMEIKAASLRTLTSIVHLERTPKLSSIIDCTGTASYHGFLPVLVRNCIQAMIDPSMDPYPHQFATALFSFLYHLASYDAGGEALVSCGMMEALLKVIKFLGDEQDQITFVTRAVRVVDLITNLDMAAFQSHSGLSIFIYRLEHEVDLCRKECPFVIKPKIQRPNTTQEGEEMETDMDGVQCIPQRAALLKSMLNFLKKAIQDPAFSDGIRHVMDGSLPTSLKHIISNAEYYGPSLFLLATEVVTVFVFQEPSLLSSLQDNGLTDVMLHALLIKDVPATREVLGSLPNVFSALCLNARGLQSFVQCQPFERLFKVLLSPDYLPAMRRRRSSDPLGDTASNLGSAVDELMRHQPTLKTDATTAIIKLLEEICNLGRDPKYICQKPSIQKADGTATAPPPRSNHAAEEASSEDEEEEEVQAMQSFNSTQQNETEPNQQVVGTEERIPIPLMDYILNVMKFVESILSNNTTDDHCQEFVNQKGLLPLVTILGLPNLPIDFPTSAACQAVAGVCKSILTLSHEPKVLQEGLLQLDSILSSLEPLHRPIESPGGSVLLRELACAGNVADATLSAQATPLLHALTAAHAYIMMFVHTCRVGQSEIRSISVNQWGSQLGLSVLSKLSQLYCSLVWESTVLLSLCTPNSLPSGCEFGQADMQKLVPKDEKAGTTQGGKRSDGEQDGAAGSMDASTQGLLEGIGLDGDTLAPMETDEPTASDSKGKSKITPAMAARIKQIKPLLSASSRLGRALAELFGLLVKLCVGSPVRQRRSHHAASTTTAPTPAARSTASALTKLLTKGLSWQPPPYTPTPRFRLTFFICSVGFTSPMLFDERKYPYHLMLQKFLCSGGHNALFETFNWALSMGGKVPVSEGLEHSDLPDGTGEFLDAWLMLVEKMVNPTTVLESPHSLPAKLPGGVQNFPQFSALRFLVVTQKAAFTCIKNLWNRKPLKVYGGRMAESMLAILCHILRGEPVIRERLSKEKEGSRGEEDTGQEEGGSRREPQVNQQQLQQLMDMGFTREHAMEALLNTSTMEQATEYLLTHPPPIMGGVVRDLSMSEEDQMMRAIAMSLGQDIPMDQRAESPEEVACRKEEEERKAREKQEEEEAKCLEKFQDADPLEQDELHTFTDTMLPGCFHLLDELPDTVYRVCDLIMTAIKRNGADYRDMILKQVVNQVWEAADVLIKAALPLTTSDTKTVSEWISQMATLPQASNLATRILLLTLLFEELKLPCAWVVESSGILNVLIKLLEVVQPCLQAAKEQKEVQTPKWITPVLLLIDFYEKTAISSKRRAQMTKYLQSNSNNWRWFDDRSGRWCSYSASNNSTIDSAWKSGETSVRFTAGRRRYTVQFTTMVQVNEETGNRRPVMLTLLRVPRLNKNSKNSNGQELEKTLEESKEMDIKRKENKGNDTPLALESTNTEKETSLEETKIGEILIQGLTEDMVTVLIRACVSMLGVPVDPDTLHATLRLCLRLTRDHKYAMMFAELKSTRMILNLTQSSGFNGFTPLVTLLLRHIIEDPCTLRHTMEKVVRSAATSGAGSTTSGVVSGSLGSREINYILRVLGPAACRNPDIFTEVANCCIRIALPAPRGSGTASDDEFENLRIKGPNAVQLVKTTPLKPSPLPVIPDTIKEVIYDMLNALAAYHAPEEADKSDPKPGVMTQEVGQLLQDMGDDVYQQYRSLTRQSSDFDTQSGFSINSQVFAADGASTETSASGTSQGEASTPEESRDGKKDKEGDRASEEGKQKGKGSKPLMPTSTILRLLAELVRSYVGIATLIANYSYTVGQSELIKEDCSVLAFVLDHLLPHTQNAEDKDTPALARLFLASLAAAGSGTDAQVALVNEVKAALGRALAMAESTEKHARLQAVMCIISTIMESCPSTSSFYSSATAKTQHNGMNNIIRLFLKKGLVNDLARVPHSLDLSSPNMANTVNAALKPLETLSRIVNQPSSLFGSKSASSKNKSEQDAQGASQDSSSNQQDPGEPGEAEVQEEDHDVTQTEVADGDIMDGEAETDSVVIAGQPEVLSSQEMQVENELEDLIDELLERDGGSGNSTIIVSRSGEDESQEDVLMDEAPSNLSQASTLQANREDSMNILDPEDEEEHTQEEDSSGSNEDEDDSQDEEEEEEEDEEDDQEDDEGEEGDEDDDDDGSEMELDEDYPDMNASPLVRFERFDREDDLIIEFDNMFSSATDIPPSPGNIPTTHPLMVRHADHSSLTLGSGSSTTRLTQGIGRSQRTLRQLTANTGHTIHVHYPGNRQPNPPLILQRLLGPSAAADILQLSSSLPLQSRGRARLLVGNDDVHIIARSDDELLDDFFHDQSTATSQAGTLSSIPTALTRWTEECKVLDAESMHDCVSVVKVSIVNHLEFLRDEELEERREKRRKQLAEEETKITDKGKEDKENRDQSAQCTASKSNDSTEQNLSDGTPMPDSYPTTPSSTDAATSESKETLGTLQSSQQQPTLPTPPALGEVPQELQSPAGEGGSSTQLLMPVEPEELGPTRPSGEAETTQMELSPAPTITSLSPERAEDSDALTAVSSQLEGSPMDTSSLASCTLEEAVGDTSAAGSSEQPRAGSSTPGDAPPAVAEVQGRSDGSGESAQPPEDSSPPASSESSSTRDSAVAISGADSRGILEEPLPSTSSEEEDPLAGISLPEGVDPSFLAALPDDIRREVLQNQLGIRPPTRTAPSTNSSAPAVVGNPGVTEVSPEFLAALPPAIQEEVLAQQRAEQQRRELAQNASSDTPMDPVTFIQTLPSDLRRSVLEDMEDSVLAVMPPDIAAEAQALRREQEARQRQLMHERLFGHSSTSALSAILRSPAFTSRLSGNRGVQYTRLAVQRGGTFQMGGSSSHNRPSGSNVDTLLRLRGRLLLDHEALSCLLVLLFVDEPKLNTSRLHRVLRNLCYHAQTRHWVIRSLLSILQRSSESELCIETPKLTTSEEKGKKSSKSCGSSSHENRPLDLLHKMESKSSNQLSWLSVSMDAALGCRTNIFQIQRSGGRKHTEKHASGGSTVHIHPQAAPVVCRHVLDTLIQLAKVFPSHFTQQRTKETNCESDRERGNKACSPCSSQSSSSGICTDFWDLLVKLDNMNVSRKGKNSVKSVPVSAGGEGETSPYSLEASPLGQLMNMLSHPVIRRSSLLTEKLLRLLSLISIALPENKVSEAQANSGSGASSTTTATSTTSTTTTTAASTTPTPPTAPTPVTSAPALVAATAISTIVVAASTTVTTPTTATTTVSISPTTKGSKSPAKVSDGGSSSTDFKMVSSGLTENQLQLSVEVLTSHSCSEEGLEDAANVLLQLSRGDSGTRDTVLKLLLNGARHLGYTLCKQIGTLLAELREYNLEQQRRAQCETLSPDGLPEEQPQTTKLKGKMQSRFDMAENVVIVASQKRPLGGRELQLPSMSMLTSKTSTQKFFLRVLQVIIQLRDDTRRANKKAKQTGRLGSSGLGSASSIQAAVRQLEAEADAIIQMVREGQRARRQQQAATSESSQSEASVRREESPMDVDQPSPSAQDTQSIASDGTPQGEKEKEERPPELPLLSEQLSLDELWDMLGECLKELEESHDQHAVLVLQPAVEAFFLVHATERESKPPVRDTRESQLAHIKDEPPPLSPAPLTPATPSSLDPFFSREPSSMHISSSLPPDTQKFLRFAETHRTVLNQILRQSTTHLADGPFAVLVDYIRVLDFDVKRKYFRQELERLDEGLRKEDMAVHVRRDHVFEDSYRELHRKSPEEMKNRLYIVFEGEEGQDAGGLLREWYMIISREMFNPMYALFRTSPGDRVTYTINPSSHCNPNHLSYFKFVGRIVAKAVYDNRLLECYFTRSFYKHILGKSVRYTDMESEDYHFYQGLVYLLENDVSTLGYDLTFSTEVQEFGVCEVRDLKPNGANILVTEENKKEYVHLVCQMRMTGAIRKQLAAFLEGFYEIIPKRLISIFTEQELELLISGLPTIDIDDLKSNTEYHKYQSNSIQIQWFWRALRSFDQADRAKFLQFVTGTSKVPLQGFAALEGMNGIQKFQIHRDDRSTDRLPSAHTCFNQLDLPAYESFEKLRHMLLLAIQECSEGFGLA
UniProt P04792, whole entry, looked up: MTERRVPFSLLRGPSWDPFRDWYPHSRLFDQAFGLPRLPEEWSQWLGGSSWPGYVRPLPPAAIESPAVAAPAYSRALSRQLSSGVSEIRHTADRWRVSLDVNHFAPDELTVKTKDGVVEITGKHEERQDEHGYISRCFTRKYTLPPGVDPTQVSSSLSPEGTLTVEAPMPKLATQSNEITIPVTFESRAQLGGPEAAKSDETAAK
UniProt P54868: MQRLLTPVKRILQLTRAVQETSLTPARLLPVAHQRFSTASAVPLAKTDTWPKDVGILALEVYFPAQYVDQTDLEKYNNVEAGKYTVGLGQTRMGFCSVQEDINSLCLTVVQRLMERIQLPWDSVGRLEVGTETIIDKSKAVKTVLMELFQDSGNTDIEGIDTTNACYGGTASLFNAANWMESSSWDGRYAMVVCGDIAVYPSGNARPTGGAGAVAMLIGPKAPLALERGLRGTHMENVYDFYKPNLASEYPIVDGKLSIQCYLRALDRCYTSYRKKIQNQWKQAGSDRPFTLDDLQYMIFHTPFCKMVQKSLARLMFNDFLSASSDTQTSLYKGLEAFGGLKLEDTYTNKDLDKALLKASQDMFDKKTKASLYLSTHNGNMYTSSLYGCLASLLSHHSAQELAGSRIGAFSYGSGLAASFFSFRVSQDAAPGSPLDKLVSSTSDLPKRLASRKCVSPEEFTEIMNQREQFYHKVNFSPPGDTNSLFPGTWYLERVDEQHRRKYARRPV
UniProt Q96EW2: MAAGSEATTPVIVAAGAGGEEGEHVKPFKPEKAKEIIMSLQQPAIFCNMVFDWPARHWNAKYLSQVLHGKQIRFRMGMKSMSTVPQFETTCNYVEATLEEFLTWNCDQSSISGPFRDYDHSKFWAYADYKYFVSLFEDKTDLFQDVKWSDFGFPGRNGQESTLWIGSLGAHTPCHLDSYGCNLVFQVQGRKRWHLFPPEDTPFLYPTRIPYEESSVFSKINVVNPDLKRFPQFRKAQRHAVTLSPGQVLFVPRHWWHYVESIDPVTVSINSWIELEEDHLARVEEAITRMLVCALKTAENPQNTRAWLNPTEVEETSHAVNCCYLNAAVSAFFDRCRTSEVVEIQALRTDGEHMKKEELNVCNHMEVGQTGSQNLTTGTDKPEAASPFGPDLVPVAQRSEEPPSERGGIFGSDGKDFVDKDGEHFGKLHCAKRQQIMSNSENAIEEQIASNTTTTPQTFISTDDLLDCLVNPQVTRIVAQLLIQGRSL
UniProt Q9UGU5: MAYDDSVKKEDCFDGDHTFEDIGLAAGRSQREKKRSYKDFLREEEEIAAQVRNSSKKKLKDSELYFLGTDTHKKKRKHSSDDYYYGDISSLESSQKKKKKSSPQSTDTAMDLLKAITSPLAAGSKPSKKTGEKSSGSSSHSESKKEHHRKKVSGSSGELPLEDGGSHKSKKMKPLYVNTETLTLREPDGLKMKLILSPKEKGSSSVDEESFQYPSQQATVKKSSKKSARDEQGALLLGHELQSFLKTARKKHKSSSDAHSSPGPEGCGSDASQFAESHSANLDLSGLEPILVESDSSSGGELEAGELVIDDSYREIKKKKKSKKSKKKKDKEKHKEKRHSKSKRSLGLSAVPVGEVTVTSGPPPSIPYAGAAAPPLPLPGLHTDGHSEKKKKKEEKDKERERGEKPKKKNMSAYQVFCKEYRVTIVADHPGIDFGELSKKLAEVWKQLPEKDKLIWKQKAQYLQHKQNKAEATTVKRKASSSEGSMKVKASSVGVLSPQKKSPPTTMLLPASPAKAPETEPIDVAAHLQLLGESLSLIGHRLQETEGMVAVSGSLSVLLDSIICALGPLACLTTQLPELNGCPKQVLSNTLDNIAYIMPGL

[2] = compound: NC(=O)c1cnc(N[C@@H]2CCCC[C@@H]2N)nc1Nc1cccc(-n2nccn2)c1
Procedure, shortened: as §1

[3] = compound: NC1(c2ccc(-c3nc4ccn5c(=O)[nH]nc5c4cc3-c3ccccc3)cc2)CCC1
Procedure, shortened: as §1

[4] = compound: NCC(=O)Nc1ccc(-n2nc(C(F)(F)F)cc2-c2ccc3c(ccc4ccccc43)c2)cc1
Procedure, shortened: as §1

[5] = compound: Nc1ccccc1NC(=O)c1ccc(CNC(=O)OCc2cccnc2)cc1 [entinostat]
Procedure, shortened: as §1

[6] = compound: O=C(CCCCCCC(=O)Nc1ccccc1)NO [vorinostat]
Procedure, shortened: as §1

[7] = compound: O=C(CCCCCCNC(=O)c1cnc(N(c2ccccc2)c2ccccc2Cl)nc1)NO [citarinostat]
Procedure, shortened: as §1

[8] = compound: O=C(O)c1ccc2c(c1)nc(Nc1cccc(Cl)c1)c1ccncc12 [silmitasertib]
Procedure, shortened: as §1

[9] = compound: O=C1NC(=O)C(c2cnc3ccccn23)=C1c1cn2c3c(cc(F)cc13)CN(C(=O)N1CCCCC1)CC2
Procedure, shortened: as §1

[10] = compound: c1cc(OCCN2CCCCC2)cc(-c2n[nH]c3ccc(-c4nnc[nH]4)cc23)c1
Procedure, shortened: as §1

Measured: log2 fold change

HSD17B10 (UniProt Q99714)
inactive: [1] 0.055 | [2] 0.032 | [3] -0.002 | [4] 0.013 | [5] 0.03 | [6] 0.003 | [7] 0.156 | [8] -0.07 | [9] 0.055 | [10] 0.032

HNRNPA3 (UniProt P51991)
inactive: [1] -0.038 | [2] 0.063 | [3] 0.402 | [4] 0.109 | [5] -0.056 | [6] -0.148 | [7] -0.175 | [8] 0.275 | [9] 0.266 | [10] -0.292

HMGN1 (UniProt P05114)
inactive: [1] 0 | [2] 0.024 | [3] 0.144 | [4] 0.03 | [5] -0.053 | [6] -0.048 | [7] -0.096 | [8] 0.037 | [9] -0.003 | [10] -0.023

HM13 (UniProt Q8TCT9)
inactive: [1] 0.071 | [2] 0.038 | [3] -0.062 | [4] -0.074 | [5] 0.02 | [6] 0.087 | [7] 0.013 | [8] 0.004 | [9] 0.017 | [10] -0.015

HUWE1 isoform 2 (UniProt Q7Z6Z7)
inactive: [1] -0.067 | [2] -0.112 | [5] 0.112

HYPK (UniProt Q9NX55)
inactive: [1] -0.006 | [2] -0.014 | [3] 0.058 | [4] 0.04 | [5] 0.052 | [6] -0.023 | [7] 0.014 | [8] -0.081 | [9] -0.054 | [10] 0.033

HSPA1L (UniProt P34931)
inactive: [1] -0.006 | [2] -0.025 | [3] 0.031 | [4] -0.224 | [5] -0.084 | [6] 0.273 | [7] -0.052 | [8] -0.052 | [9] -0.126 | [10] 0.03

HS1BP3 (UniProt Q53T59)
inactive: [1] -0.059 | [2] -0.075 | [4] 0.027 | [5] -0.05 | [7] 0.115 | [9] -0.016 | [10] 0.108

HNRNPL (UniProt P14866)
inactive: [1] -0.016 | [2] 0.092 | [3] 0.336 | [5] 0.104 | [6] 0.007 | [7] -0.15 | [8] 0.086 | [9] -0.022 | [10] -0.206

HNRNPUL1 (UniProt Q9BUJ2)
inactive: [1] -0.059 | [2] 0.028 | [3] -0.081 | [4] -0.059 | [5] -0.012 | [6] 0.03 | [7] 0.002 | [8] 0.034 | [9] 0.08 | [10] -0.046

Reprinted from the entries so far (seven entries):
HMGN1 (UniProt P05114)
inactive: [1] 0 | [2] 0.024 | [3] 0.144 | [4] 0.03 | [5] -0.053 | [6] -0.048 | [7] -0.096 | [8] 0.037 | [9] -0.003 | [10] -0.023

HM13 (UniProt Q8TCT9)
inactive: [1] 0.071 | [2] 0.038 | [3] -0.062 | [4] -0.074 | [5] 0.02 | [6] 0.087 | [7] 0.013 | [8] 0.004 | [9] 0.017 | [10] -0.015

HUWE1 isoform 2 (UniProt Q7Z6Z7)
inactive: [1] -0.067 | [2] -0.112 | [5] 0.112

HYPK (UniProt Q9NX55)
inactive: [1] -0.006 | [2] -0.014 | [3] 0.058 | [4] 0.04 | [5] 0.052 | [6] -0.023 | [7] 0.014 | [8] -0.081 | [9] -0.054 | [10] 0.033

HSPA1L (UniProt P34931)
inactive: [1] -0.006 | [2] -0.025 | [3] 0.031 | [4] -0.224 | [5] -0.084 | [6] 0.273 | [7] -0.052 | [8] -0.052 | [9] -0.126 | [10] 0.03

HS1BP3 (UniProt Q53T59)
inactive: [1] -0.059 | [2] -0.075 | [4] 0.027 | [5] -0.05 | [7] 0.115 | [9] -0.016 | [10] 0.108

HNRNPL (UniProt P14866)
inactive: [1] -0.016 | [2] 0.092 | [3] 0.336 | [5] 0.104 | [6] 0.007 | [7] -0.15 | [8] 0.086 | [9] -0.022 | [10] -0.206

Going on with the list.

HIBCH (UniProt Q6NVY1)
inactive: [1] -0.01 | [2] -0.057 | [3] -0.08 | [4] -0.065 | [5] 0.037 | [6] 0.015 | [7] 0.015 | [8] -0.007 | [9] -0.007 | [10] -0.012

HSP90AB4P (UniProt Q58FF6)
inactive: [1] -0.086 | [2] -0.435 | [3] -0.54 | [5] 0.001 | [7] -0.003 | [8] 0.267 | [9] -0.097 | [10] 0.022

HSPB1 (UniProt P04792)
inactive: [1] -0.034 | [2] -0.037 | [3] 0.007 | [4] -0.004 | [5] 0.028 | [6] -0.008 | [7] -0.031 | [8] 0.056 | [9] 0.043 | [10] -0.081

HINT2 (UniProt Q9BX68)
inactive: [1] 0.096 | [2] 0.078 | [3] -0.084 | [4] 0.041 | [5] -0.034 | [6] -0.053 | [7] -0.009 | [8] -0.015 | [10] -0.055

HINT3 (UniProt Q9NQE9)
inactive: [1] -0.044 | [2] 0.009 | [3] -0.088 | [4] -0.014 | [5] -0.048 | [6] -0.03 | [7] 0.05 | [8] 0.021 | [9] -0.055 | [10] -0.031

HKDC1 (UniProt Q2TB90)
inactive: [1] 0.008 | [2] -0.053 | [3] -0.116 | [4] -0.011 | [5] 0.044 | [6] 0.008 | [7] 0.108 | [8] 0.043 | [9] -0.037 | [10] -0.011

ID1 (UniProt P41134)
inactive: [3] -0.135 | [8] -0.031 | [9] -0.451

HLA-E (UniProt P13747)
inactive: [1] 0.03 | [2] 0.087 | [5] 0.06 | [6] 0.034 | [9] -0.078

HOOK2 (UniProt Q96ED9)
inactive: [7] -0.012 | [9] 0.108 | [10] 0.031

HMGCS2 (UniProt P54868)
inactive: [1] 0.199 | [5] 0.017

HSPBP1 (UniProt Q9NZL4)
inactive: [9] 0.28

HP (UniProt P00738)
inactive: [1] 2.56 | [5] 0.137

HSBP1 (UniProt O75506)
inactive: [7] 0.123 | [10] 0.087

HOMER3 (UniProt Q9NSC5)
inactive: [1] 0.063 | [3] 0.16 | [5] 0.083 | [8] -0.014

HIGD1A isoform 2 (UniProt Q9Y241)
inactive: [1] -0.174 | [3] 0.019 | [5] -0.096 | [8] -0.009

IBTK (UniProt Q9P2D0)
inactive: [1] -0.108 | [2] 0.075 | [5] 0.01 | [6] 0.086 | [7] -0.129 | [9] 0.092 | [10] -0.228

HIF1AN (UniProt Q9NWT6)
inactive: [2] 0.024 | [3] 0.068 | [4] -0.088 | [6] 0.093 | [7] -0.035 | [8] 0.005 | [9] -0.027 | [10] -0.19

HPF1 (UniProt Q9NWY4)
inactive: [9] 0.01

HOMER2 (UniProt Q9NSB8)
inactive: [2] 0.475 | [3] -0.077 | [4] -0.089 | [7] -0.074 | [8] 0.071 | [9] -0.419 | [10] -0.129

ICE1 (UniProt Q9Y2F5)
inactive: [1] -0.135 | [3] 0.031 | [5] -0.074 | [8] 0.019 | [9] -0.19

HMG20B (UniProt Q9P0W2)
inactive: [6] 0.129

HSPBAP1 (UniProt Q96EW2)
inactive: [2] -0.221 | [4] -0.332

HIGD2A (UniProt Q9BW72)
inactive: [9] -0.221

ICA1 isoform 2 (UniProt Q05084)
inactive: [2] -0.001 | [6] 0.093 | [9] -0.095

HOOK1 (UniProt Q9UJC3)
inactive: [2] -0.246 | [4] -0.117 | [7] 0.006 | [9] -0.002 | [10] -0.026

HPS4 isoform 4 (UniProt Q9NQG7)
inactive: [6] -0.361

HMGXB4 (UniProt Q9UGU5)
inactive: [7] -0.021 | [9] 0.075 | [10] -0.04

HIST2H2AA3 (UniProt Q6FI13)
inactive: [2] 0.485 | [3] 0.524 | [4] 0.235 | [6] 0.28 | [7] 0.218 | [8] 0.056 | [9] 0.131 | [10] 0.818

From the supplement of paper PMC10849652
